Mtb growth Cornell: 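Whole-cell assay for inhibitors of Mycobacterium tuberculosis growth, labelled Cornell in the record; the read-out is not stated. The concentration is filed as 10 mM, unlikely as a test dose, so the dose is not known. Higher means stronger inhibition (inferred from two other growth screens of the library). About 53,000 compounds were tested under these conditions; 1.7% (about 900) showed 50% or more at least once.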
Mtb heat-shock: 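Assay on Mycobacterium tuberculosis, filed only as a heat shock assay from Cornell; the read-out is not stated. The concentration is filed as 10 mM, unlikely as a test dose, so the dose is not known. Higher reads as stronger inhibition (inferred: compounds with an IC50 in retests scored well above the rest). About 69,000 compounds were tested under these conditions; 1.4% (about 930) showed 50% or more at least once.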

Each number is a percent effect as filed. The controls that fix the scale are not given in the record; negative values are as filed. This is an unselected part of the compounds tested. A dash means the value is not listed here; it may have been measured.

SMILES | Mtb growth Cornell | Mtb heat-shock
c1cc(CNCC2CNc3ccnn3C2)cc(N2CCCCC2)n1 (stereo not drawn) | - | -15.78
CC(C)n1cnc2c(N3CCCC3)nc(C3CCNCC3)cc21.Cl.Cl | -6.966 | -69.95
Cc1cc(C(=O)NS(C)(=O)=O)c(C)n1-c1ccccc1 | - | -8.925
CC(C)OCc1ccc(CNc2cncc(-n3cccn3)n2)cc1 | - | 12.24
CC(=O)N1CCC(Nc2cc(F)ccc2OCC2CCCO2)CC1 (stereo not drawn) | - | -6.723
CS(=O)(=O)NCC1CCCN(C(=O)c2ccco2)C1 (stereo not drawn) | - | 6.911
CC(NC(=O)NCCCn1cccn1)c1cccnc1 (stereo not drawn) | -6.521 | 0.7494
CN1CCN(Cc2ccccc2CNC(=O)c2ccc(Br)cc2F)CC1 | -25.57 | -11.08
Cc1nnc2n1CCN(CC(=O)NC(C)c1cccc3ccccc13)C2 (stereo not drawn) | 30.08 | -15.94
O=C(O)C(F)(F)F.O=C(O)C(F)(F)F.O=C(O)C(F)(F)F.O=C(O)C(F)(F)F.[H][C@@]12CN(Cc3ccncc3)C[C@]1([H])OCCN2CCN1CCCC1 | 32.44 | -27.54
O=C(Nc1ccc(-c2csnn2)cc1)NC(CCO)C1CC1 (stereo not drawn) | - | -3.899
CCOc1ccc2[nH]c(=O)c(CN3CCCCC3C)cc2c1 (stereo not drawn) | -7.193 | -0.5577
[H][C@]12CC[C@@]3(N=C(CC)NC3=O)[C@@]1([H])CN(C(=O)NCc1ccccc1C)C2 | 0.459 | -22.71
CCC(NC(=O)c1cccc2cc[nH]c12)C(=O)N1CCOCC1 (stereo not drawn) | 38.49 | -3.132
CCC(C)CNCC1(S(C)(=O)=O)CCOCC1 (stereo not drawn) | -10.79 | 2.768
Cn1ccc(C(=O)N2CCN(CC(O)C(C)(C)C)CC2)cc1=O (stereo not drawn) | 10.99 | 4.979
COc1ccc(-c2noc(CN3CC(n4cc(C)cn4)C3)n2)cc1 | 22.62 | 6.396
CSc1ccc(CN(CCO)C(=O)CCNC(C)=O)cc1 | -10.96 | -7.859
[H][C@@]12CS(=O)(=O)C[C@]1([H])N(C(=O)CCn1cc(C)cn1)CCN2C(=O)C(C)C | -79.15 | 26.46
Cc1ccccc1CN(CCN(C)C)Cc1ccc(C(=O)O)cc1 | -28.57 | 15.33
O=C(NC1CC1)N1CCC2(CC1)C(=O)NCCN2Cc1ccccc1.O=C(O)C(F)(F)F | - | 5.553
CC(C)c1ccc(C(=O)N2CCOCC2CC(=O)c2ccco2)cn1 (stereo not drawn) | 6.729 | 8.535
Cc1cnccc1N1CCCN(C(=O)CCCS(N)(=O)=O)CC1 | -16.54 | 3.511
CC(C)(C)c1noc(CN2CCCCC2Cn2cncn2)n1 (stereo not drawn) | - | -26.16
CC(=O)N[C@@H]1Cc2ccccc2[C@H]1Nc1ccncn1 | 15.44 | 12.79
CNc1cc(C)nc(N2Cc3cnn(Cc4ccc(F)cc4)c3C2)n1 | -18.14 | -20.76
CNCC(=O)N1CC(c2cc(Nc3nc(C)cs3)nc(C)n2)C1.Cl | -11.31 | -30.99
CNc1cc(CCNC(=O)C2CCCC2)nc(-c2ccccn2)n1 | 52.1 | 89.44
CS(=O)(=O)Nc1ccc(-n2c(CCCO)nc3ccccc32)cn1 | -18.92 | -16.64
N#Cc1cccc(N2CCC3(CCC(=O)N(CC4CCCO4)C3)CC2)n1 (stereo not drawn) | -4.518 | -32.47
CC(C)c1ocnc1C(=O)NC1(c2cccc(F)c2)CCOCC1 | - | -21.73
CN1CCCCc2c1nc1c(c2N)CCCC1 | 4.174 | -0.4276
COc1c(CNCC(O)c2ccccc2F)c(C(C)C)nn1C (stereo not drawn) | -39.06 | -22.21
[H][C@]12CO[C@H](CNS(C)(=O)=O)[C@@]1([H])CCN(Cc1cccnc1)C2 | 8.421 | 16.11
COc1ncnc(N(C)C)c1NC(=O)Cc1cc(F)ccc1F | - | -7.673
COc1cccc(CCC2CCCN(C(=O)C3=NN(C)C(=O)CC3)C2)c1 (stereo not drawn) | - | 5.203
CC(C)N1CCOC[C@H]1c1nc(-c2ccncc2)c[nH]1 | 0.8687 | -13.56
Cc1csc(CNc2cnn(CC(F)(F)F)c2)n1 | 1.65 | 8.37
O=C1NCC2(CCCN(Cc3ccncc3)C2)Oc2ccccc21 (stereo not drawn) | 19.96 | -6.858
Cl.Cl.O=C(NCc1cncc2c1CCN(CC1CCOC1)C2)c1ccco1 (stereo not drawn) | -36.32 | 5.54
CC(C)COC(=O)N1CC(=O)N(CCCc2ccccc2)CC(O)C1 (stereo not drawn) | 6.947 | 54.63
CN(C)CC1CN(C(=O)NCc2ccccc2)Cc2nccn2C1.O=C(O)C(F)(F)F (stereo not drawn) | -12.01 | -36.52
NC(=O)c1ccc(OCC(=O)NC2CCc3c(F)cccc32)cc1 (stereo not drawn) | 10.71 | -8.965
O=C(O)C(F)(F)F.O=C(O)C(F)(F)F.[H][C@@]12OCCN(Cc3ccc(OC)cc3)[C@@]1([H])CC[C@H]2OCc1ccncc1 | -7.149 | 21.14
Cc1cccc(CN2CCc3ncnc(C)c3CC2)n1.O=C(O)C(F)(F)F | 7.289 | -23.48
CC(C)Oc1ccc2c(NC(=O)[C@H](C)O)nn(CC(F)(F)F)c2c1 | -31.94 | 11.64
CCOC(=O)CNC(=O)c1scnc1C | 8.54 | -4.114
CNCCCNc1nc(C2CCCC2)nc2c1cnn2C | 15.27 | -14.72
[H][C@]12CCCCN1CCC[C@H]2CCC(=O)NCCc1nc(N)cc(O)n1 | - | -5.518
CCn1ncnc1CN1CCC(CNC(=O)c2ccccc2C#N)C1 (stereo not drawn) | 10.11 | 17.12
[H][C@@]12CCN(c3ncccn3)[C@@]1([H])CCN2C(=O)NC1CC1 | 28.75 | 0.1524
CN(C)CC1CN(Cc2csc(C3CCCC3)n2)CCO1 (stereo not drawn) | 16.19 | -37.96
O=C(NCCCO)Nc1cccc(Cl)c1F | 7.959 | -13.72
CCN1Cc2nc(OC)c(CNC(=O)C3CCCN(C)C3)cc2C1=O (stereo not drawn) | 5.287 | 0.5145
COc1ccc(N2CCN(C[C@@H](C)CO)CC2=O)cc1 | - | -8.623
Cc1cc(S(=O)(=O)N2CCC(N3CCC(O)C3)CC2)c(Cl)cc1Cl (stereo not drawn) | -6.334 | 16.55
c1cncc(O[C@H]2COCCN(C3CCC3)C2)c1 | 18.67 | -51.69
Cc1cnc(CCN(C)C(=O)c2cccc(C)c2O)s1 | 14.36 | -0.1908
Cc1nn(S(=O)(=O)c2ccc(Cl)cc2)c(C)c1C | - | -4.266
Cc1cc(C(=O)NCc2cccnc2OC(C)C)no1 | 14.36 | 12.61
CCc1ccccc1Nc1noc2c1CN(C(=O)CCOC)CC2 | -48.84 | -25.55
CSc1ccc(-c2nc(CN3CCC(CN)C3)c(C)o2)cc1 (stereo not drawn) | 11.91 | 4.141
Cn1cc(-c2nc(CN3CCOC(Cn4cncn4)C3)cs2)cn1 (stereo not drawn) | -11.72 | -17.04
Cc1nsc(NC(=O)NC2(CN3CCOCC3)CCCC2)n1 | 12.63 | 7.425
N#Cc1ccc(N2CCC3(CC2)CC(Oc2cccnc2)CO3)cc1.O=C(O)C(F)(F)F (stereo not drawn) | 11.53 | -21.3
Cn1ncc2c(NC3CCSC3)nc(-c3ccncc3)nc21 (stereo not drawn) | - | 2.801
Cc1occc1CNC(=O)N1CCC(Cc2cnn(C)c2)C1 (stereo not drawn) | - | -1.984
Cc1ccc(N2CCC3(CCN(Cc4ccccn4)CC3)CC2)nn1 | -9.039 | -13.61
O=C(NCCC1CCN(CC(F)(F)F)CC1)C1CCOC1 (stereo not drawn) | -34.36 | 15.05
COc1cc(-c2cc(N)ncn2)cc(OC)c1OC | 14.69 | -15.74
COc1ccccc1CN1CCN(CCN2CCOC2=O)CC1 | -10.11 | -3.476
Cc1cc(C)n2nc(C(=O)N3CCCC4(CNC(=O)O4)C3)cc2n1 (stereo not drawn) | -21.39 | -28.19
Cn1nc2c(cc1=O)CN(Cc1nnc(-c3ccco3)o1)CC2 | 1.336 | 20.65
N#CCCCn1nnc(C2(NC(=O)c3ccccc3)CCCC2)n1 | -11.24 | 4.661
CC1COC2(CCN(C(=O)c3ncoc3C(C)C)CC2)O1 (stereo not drawn) | -19.21 | -9.769
[H][C@]12CC[C@]([H])(CN(C(=O)COCC)C1)N(Cc1ccccn1)C2=O | - | 14.26
c1ccc(C(CC2CN(Cc3ncc[nH]3)CCO2)c2ccccc2)cc1 (stereo not drawn) | - | -19.62

The last 9 entries again:

| SMILES | Mtb growth Cornell | Mtb heat-shock |
|---|---|---|
| `O=C(NCCC1CCN(CC(F)(F)F)CC1)C1CCOC1` (stereo not drawn) | -34.36 | 15.05 |
| `COc1cc(-c2cc(N)ncn2)cc(OC)c1OC` | 14.69 | -15.74 |
| `COc1ccccc1CN1CCN(CCN2CCOC2=O)CC1` | -10.11 | -3.476 |
| `Cc1cc(C)n2nc(C(=O)N3CCCC4(CNC(=O)O4)C3)cc2n1` (stereo not drawn) | -21.39 | -28.19 |
| `Cn1nc2c(cc1=O)CN(Cc1nnc(-c3ccco3)o1)CC2` | 1.336 | 20.65 |
| `N#CCCCn1nnc(C2(NC(=O)c3ccccc3)CCCC2)n1` | -11.24 | 4.661 |
| `CC1COC2(CCN(C(=O)c3ncoc3C(C)C)CC2)O1` (stereo not drawn) | -19.21 | -9.769 |
| `[H][C@]12CC[C@]([H])(CN(C(=O)COCC)C1)N(Cc1ccccn1)C2=O` | - | 14.26 |
| `c1ccc(C(CC2CN(Cc3ncc[nH]3)CCO2)c2ccccc2)cc1` (stereo not drawn) | - | -19.62 |

From ChEMBL document CHEMBL3988442, “University of Dundee, Small-Polar-MMV Screening Library” (2021).